Source: paper PMC4004456
These are yes or no findings as the source states them, for the method shown. In cells and extracts the contact can be indirect. Some binding calls cover weakened binding; strength is not graded here.

The chains behind the UniProt entries cited, without tags or fusion partners. Residues count along the entry.
UniProt Q04206: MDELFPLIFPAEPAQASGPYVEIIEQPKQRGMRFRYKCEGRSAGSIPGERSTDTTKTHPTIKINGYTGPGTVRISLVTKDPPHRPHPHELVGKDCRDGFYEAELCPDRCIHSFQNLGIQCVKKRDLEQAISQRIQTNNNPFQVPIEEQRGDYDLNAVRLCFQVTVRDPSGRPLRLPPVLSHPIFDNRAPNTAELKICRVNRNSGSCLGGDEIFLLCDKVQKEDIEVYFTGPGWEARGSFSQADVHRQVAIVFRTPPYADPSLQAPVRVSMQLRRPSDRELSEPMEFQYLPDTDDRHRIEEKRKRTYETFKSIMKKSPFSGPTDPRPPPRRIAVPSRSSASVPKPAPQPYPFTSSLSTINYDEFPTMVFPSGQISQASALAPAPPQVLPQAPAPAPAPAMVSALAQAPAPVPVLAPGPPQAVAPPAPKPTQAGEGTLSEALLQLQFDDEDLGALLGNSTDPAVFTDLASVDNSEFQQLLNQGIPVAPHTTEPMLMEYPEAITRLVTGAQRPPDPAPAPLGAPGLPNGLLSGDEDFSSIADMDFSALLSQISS
UniProt P19838, residues 1-433: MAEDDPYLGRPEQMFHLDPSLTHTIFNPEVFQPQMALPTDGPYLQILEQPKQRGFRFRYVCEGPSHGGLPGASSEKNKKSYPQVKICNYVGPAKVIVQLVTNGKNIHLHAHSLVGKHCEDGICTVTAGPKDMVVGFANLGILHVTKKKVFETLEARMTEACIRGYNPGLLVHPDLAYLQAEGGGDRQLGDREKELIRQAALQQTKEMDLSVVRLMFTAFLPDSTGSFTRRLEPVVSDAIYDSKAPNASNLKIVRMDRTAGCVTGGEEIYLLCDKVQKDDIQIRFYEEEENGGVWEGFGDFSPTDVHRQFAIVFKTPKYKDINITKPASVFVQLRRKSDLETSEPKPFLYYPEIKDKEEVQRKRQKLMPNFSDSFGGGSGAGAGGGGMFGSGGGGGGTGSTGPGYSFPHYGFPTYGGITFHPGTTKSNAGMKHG

Target: NF-κB p65 (human (endogenous in DU145)) (UniProt Q04206)
Assay: co-IP; lysates of DU145/sh-Con and DU145/sh-E2F1 (E2F1 knock-down) cells immunoprecipitated with anti-NF-κB p65 antibody; immunoprecipitates blotted with anti-p65, anti-p50 and anti-E2F1

Substance: NF-κB p50 (from UniProt P19838 1-433)
- binding: binds
